From patent US7985766B2, “Combination of anticholineric and β mimetics for the treatment of respiratory diseases” (MEDA Pharma GmbH & Co. KG, priority 2004, dated 2011)

System: guinea pigs
Procedure: After cannulating the trachea, animals were respired using a small animal respiratory pump with a constant tidal volume and a rate of 60 breaths/min. The lung resistance was measured by using a rodent lung function recording system (MUMED, London, UK). Compounds were given intravenously (i.v.) via a catheter placed in the right jugular vein. After surgery, the animals were allowed to stabilize. 10 min before acetylcholine (10 μg/kg, i.v.) administration, the guinea pigs were disconnected from the respirator and either vehicle (10 mg/lactose) or different amounts of drugs (blended with lactose) were administered intratracheally (i.th.) using a syringe. The trachea was then reconnected to the respirator and changes in pulmonary mechanics were recorded. Acetylcholine (10 μg/kg) was injected intravenously in every 10 minutes for 60 min.

COc1ccc(CC(C)NCC(O)c2ccc(O)c(NC=O)c2)cc1 (centres unmarked) [formoterol]
attenuation of bronchoconstriction induced by i.v. acetylcholine (highest dose of 10 μg/kg, i.th.): almost completely attenuated
dilation of the airways (bronchodilatory effect) (medium dose of 3 mg/kg, i.th. (so in the source)): about 20%
